# Results deposited as PubChem BioAssay AID1259254 (NCATS, 2017).
# Purpose: 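Genome-wide screen for genes that prevent DNA re-replication in cancer cells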 (primary screen)
# Cells: human HCT116 colorectal cancer cells
# Reagent: single siRNA against human genes
# Time to read-out: 3 days
# Measurement: 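Imaged Hoechst DNA stain sorts each cell into a cycle phase by DNA amount; per plate, G2 fraction set to 0% for non-targeting and 100% for GMNN siRNA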
# Scale: G2 robust z-score and G2 cells, % of GMNN control: higher = more G2 cells, more excess DNA replication; raw share of cells in G2: higher = larger share of cells with G2 DNA content
# Hit rule: 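Active siRNAs have a G2 robust z of 5 or more median absolute deviations over the median, which in these data means about 38% or higher of GMNN control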
# Here is one part, drawn at random, of about 59,000 reagents. Of all reagents, about 1,550 (2.6%) were called active. 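G2 share is only a proxy for re-replication; each gene was hit by three separate siRNAs, and active genes were retested.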 The raw values are shown without normalisation. A number with no mark means an inactive call. Reagents against one gene are numbered here. The record does not give: the amount of reagent.
gene symbol,reagent,G2 robust z-score,"G2 cells, % of GMNN control",raw share of cells in G2 (%)
PDK4,1,-0.193,1.61,6.14
PDK4,2,-0.837,-2.92,4.43
PDK4,3,-0.583,-1.13,3.63
SNAP47,1,-0.338,0.59,1.99
SNAP47,2,-0.118,2.14,4.95
SNAP47,3,-0.623,-1.41,2.91
CD79B,1,0.114,3.77,5
CD79B,2,5.03 (active),38.4,23.3
CD79B,3,-0.274,1.04,4.47
OR2J2,1,4.8,36.7,18.2
OR2J2,2,-0.264,1.11,4.42
OR2J2,3,-0.352,0.494,3.47
CDHR2,1,-1.26,-5.91,3.27
CDHR2,2,6.9 (active),51.5,23.3
CDHR2,3,0.629,7.39,6.63
EDEM3,1,-0.305,0.822,5.09
EDEM3,2,1.64,14.5,9.46
EDEM3,3,1.55,13.8,11.2
PROK2,1,-0.494,-0.509,4.04
PROK2,2,-0.731,-2.18,4.74
PROK2,3,2.86,23.1,12.5
TAF5L,1,0.623,7.35,5.39
TAF5L,2,-1,-4.09,4.06
TAF5L,3,-0.127,2.08,4.28

Targets above whose gene name begins with P or p (6):
gene symbol,reagent,G2 robust z-score,"G2 cells, % of GMNN control",raw share of cells in G2 (%)
PDK4,1,-0.193,1.61,6.14
PDK4,2,-0.837,-2.92,4.43
PDK4,3,-0.583,-1.13,3.63
PROK2,1,-0.494,-0.509,4.04
PROK2,2,-0.731,-2.18,4.74
PROK2,3,2.86,23.1,12.5

The list goes on:
gene symbol,reagent,G2 robust z-score,"G2 cells, % of GMNN control",raw share of cells in G2 (%)
KLRC2,1,-1.2,-5.46,3.06
KLRC2,2,12.7 (active),92.1,40.8
KLRC2,3,-0.222,1.4,4.72
ATP2B3,1,-1.19,-5.39,3.33
ATP2B3,2,-1.02,-4.2,3.36
ATP2B3,3,1.85,16,10.6
TIPRL,1,0.153,4.04,4.5
TIPRL,2,-0.875,-3.19,2.48
TIPRL,3,-0.415,0.0459,3.06
KISS1R,1,4.93,37.7,19.3
KISS1R,2,-1.4,-6.89,2.11
KISS1R,3,0.745,8.21,5.78
GPR174,1,-0.563,-0.993,5.49
GPR174,2,-0.451,-0.204,4.45
GPR174,3,-0.354,0.474,3.41
CCDC144BP,1,1.26,11.8,7.96
CCDC144BP,2,-0.911,-3.44,1.71
CCDC144BP,3,0.932,9.52,6.16
ZBTB33,1,0.654,7.57,6.04
ZBTB33,2,0.0593,3.38,7.49
ZBTB33,3,-0.00794,2.91,4.56
TXN2,1,3.15,25.1,17.5
TXN2,2,2.68,21.8,11.4
TXN2,3,5.47 (active),41.5,17.6
